According to the supplement of paper PMC10735217:
The list shows a part of the results. Repeats in this data set agree poorly, so a single value says little.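 Human kidney-derived cells stably carry a construct in which eight TEAD-binding elements drive luciferase, measured by luminescence in a drug-repurposing library screen. A hit is any compound whose signal exceeds the plate mean by more than five robust Z scores.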

System: HEK293A TEAD-LUC reporter
Test: TEAD-luciferase reporter activity (YAP activation), robust Z score vs plate; higher = stronger YAP/TEAD activation
Conditions: 24 h

SMILES	TEAD-luciferase reporter activity (compound concentration: 200 nM)	TEAD-luciferase reporter activity (compound concentration: 10 uM)	TEAD-luciferase reporter activity (compound concentration: 2 uM)
NC(=O)c1ccc([N+](=O)[O-])cc1Cl	inactive: -0.661	inactive: -1.05	
NC(=O)c1ccc([N+](=O)[O-])cc1Cl [Aklomide]			inactive: -0.686
O=C(CCc1ccccc1)NC[C@H]1CN(c2ccc(N3CCOCC3)c(F)c2)C(=O)O1	inactive: 0.0736	inactive: 1.92	inactive: -1.48
CC1(C)C2CCC1(CS(=O)(=O)O)C(=O)/C2=C\c1ccc(/C=C2\C(=O)C3(CS(=O)(=O)O)CCC2C3(C)C)cc1 [Ecamsulum]	inactive: -1.43	active: 9.13	inactive: -2.19
Cc1oncc1C(=O)N1CCCCC1 [Nerbacadol]	inactive: -0.753	inactive: 1.67	inactive: 0.184
C=C1/C(=C/C=C2\CCC[C@]3(C)[C@@H]([C@H](C)/C=C/[C@@H](O)C4CC4)CC[C@@H]23)C[C@@H](O)C[C@@H]1O [calcipotriol (ointment), novel formulation, Leo]	inactive: -1.5	inactive: 0.33	
C=C1/C(=C/C=C2\CCC[C@]3(C)[C@@H]([C@H](C)/C=C/[C@@H](O)C4CC4)CC[C@@H]23)C[C@@H](O)C[C@@H]1O [calcipotriol (ointment), novel formulation]			inactive: 0.248
COc1ccnc(-c2cccc(C)c2S(=O)c2nc3ccccc3[nH]2)c1 (configuration not stated)	inactive: -1.05	inactive: 0.211	inactive: -0.673
CC(=O)N(C)C1CCc2ccccc21 (configuration not stated)	inactive: 3.33	inactive: 0.894	
COc1cccc(-c2ccc(CN3CCCC3C(=O)NCc3ccc(C(F)(F)F)cc3)cc2)c1 (configuration not stated)	inactive: 2.49	inactive: 0.89	
CON=C(C(=O)NC1CN2CC(S(C)(=O)=O)=C(C(=O)O)N2C1=O)c1csc(N)n1 (configuration not stated)	inactive: -0.367	inactive: 1.58	
C/C(=C\C(=O)c1ccccc1)N[C@@H](Cc1ccc(OCCc2nc(-c3ccccc3)oc2C)cc1)C(=O)[O-]	inactive: 0.29	inactive: 0.329	inactive: 0.229
CCCN1CCCCC12Cc1ccccc1CN(C(=O)C1CCN(C)CC1)C2 (configuration not stated)	inactive: -1.08	inactive: -0.815	
CCCCC1C(=O)N(c2ccccc2)N(c2ccccc2)C1=O [Phenylbutazone]	inactive: -0.734	inactive: -1.12	inactive: 0.0751
C=CC1CNCCC1CCCc1ccnc2ccc(OC)cc12 (configuration not stated) [Viqualine]	inactive: -0.824	inactive: -0.877	inactive: -0.891
CCCCc1nc(Cl)c(C(=O)O)n1Cc1ccc2oc(-c3ccccc3-c3nnn[nH]3)c(Br)c2c1	inactive: -1.23	inactive: -1.27	inactive: -1.28
COc1cc(C)c(S(C)=O)cc1OC (configuration not stated) [Tolmesoxide]	inactive: -0.383	inactive: -0.175	inactive: 0.903
COC(=O)N1CCC(N2CC3CCCN3C2=O)CC1 (configuration not stated)	inactive: -1.04	inactive: -0.54	
CN1C(C(=O)Nc2ccccn2)=C(O)c2sc(Cl)cc2S1(=O)=O [Lornoxicam (Xefo)]	inactive: -1.66	inactive: 0.665	inactive: 1.81
CCCC(=O)c1cnc2c(OCCO)cccc2c1Nc1ccccc1C	inactive: 1.83	inactive: 0.166	inactive: -0.609
COc1cc(C(=O)N2CCOCC2)cc(OC)c1OC	inactive: -1.78	inactive: -0.0416	inactive: -1.48
COc1cccc(-c2cc(=O)c3ccccc3o2)c1N	active: 9.37	inactive: 1.91	inactive: 1.89
CC1=CCC(C(C)(C)O)CC1 (configuration not stated)	inactive: -0.645	inactive: -0.875	inactive: -1.47
CC(C)[C@@H](CC[C@@H](C)[C@H]1CC[C@H]2[C@@H]3[C@H](O)C[C@H]4C[C@@H](NCCCNCCCCN)CC[C@]4(C)[C@H]3CC[C@]12C)OS(=O)(=O)O	inactive: 1.24	inactive: -1	inactive: 0.173
O=C(NCc1cc(C(F)(F)F)ccc1F)[C@](O)(c1ccccc1)C(F)(F)F	inactive: 1.66	inactive: 1.75	inactive: -0.14
CC(=O)NC/C=C(C)/C=C/C=C(C)/C=C/C1=C(C)CCCC1(C)C	inactive: -1.47	inactive: -0.107	inactive: -0.485

Record cards, as listed above.
CC(=O)N(C)C1CCc2ccccc21 (configuration not stated) as listed: TEAD-luciferase reporter activity (compound concentration: 200 nM): inactive: 3.33; TEAD-luciferase reporter activity (compound concentration: 10 uM): inactive: 0.894
O=C(CCc1ccccc1)NC[C@H]1CN(c2ccc(N3CCOCC3)c(F)c2)C(=O)O1 as listed: TEAD-luciferase reporter activity (compound concentration: 200 nM): inactive: 0.0736; TEAD-luciferase reporter activity (compound concentration: 10 uM): inactive: 1.92; TEAD-luciferase reporter activity (compound concentration: 2 uM): inactive: -1.48
